Results are given in words; binding and its absence hold for the method and conditions named. Some entries that bind do so weakly or less than the wild type.
Target: feline serum albumin (feline) (UniProt P49064)
Assay: ELISA, albumin coated on plate, Fab in solution

Sequences of proteins named here, by UniProt entry; tags and fusion partners are left off. Residues count along the entry.
UniProt P49064, residues 25-608: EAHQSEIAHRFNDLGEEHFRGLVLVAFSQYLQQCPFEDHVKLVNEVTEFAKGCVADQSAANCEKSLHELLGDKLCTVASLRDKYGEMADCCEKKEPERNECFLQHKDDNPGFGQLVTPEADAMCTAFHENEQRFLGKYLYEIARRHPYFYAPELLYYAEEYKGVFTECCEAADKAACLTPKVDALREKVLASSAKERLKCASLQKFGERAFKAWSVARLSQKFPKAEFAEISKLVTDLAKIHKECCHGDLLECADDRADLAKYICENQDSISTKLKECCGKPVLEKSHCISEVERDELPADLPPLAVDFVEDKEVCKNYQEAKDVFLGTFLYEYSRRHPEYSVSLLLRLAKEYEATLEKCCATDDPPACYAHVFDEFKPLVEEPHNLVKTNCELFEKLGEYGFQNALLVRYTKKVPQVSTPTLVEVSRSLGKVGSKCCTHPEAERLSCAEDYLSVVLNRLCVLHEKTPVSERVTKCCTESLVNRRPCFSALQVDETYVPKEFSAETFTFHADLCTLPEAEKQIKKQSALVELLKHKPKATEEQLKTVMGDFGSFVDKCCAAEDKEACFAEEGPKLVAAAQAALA

B1: FL335 Fab antibody fragment (Fab, V domains shown)
VH: QVQLVQSGGGPVKPGGSLRLSCAASGFMFRAYSMNWVRQAPGKGLEWVSSISSSGRYIHYADSVKGRFTISRDNAKNSLYLQMNSLRAEDTAVYYCARETVMAGKALDYWGQGTLVTVSS
VL: DIVLTQSPGTLSLSPGETATLSCRASQSVGSNLAWYQQKPGQAPRLLIYGASTGATGVPARFSGSRSGTDFTLTITSLQPEDFATYYCQQYYSFLAKTFGQGTQLEIKR
notes: also called FL355 Fab antibody fragment; feline chimeric antibody fragment
binding: binds

Reference: patent US20230140224A1 (APRILBIO, published 2023)
